Measurements reported in patent US20110110979A1, “METHOD AND VACCINE FOR […] SPECIFIC IMMUNE RESPONSES” (Universite De Lausanne, priority 2008, published 2011).
At least one compound was matched to its structure with a doubt left.

System: E749-57-specific CD8 T cells
Test: ex vivo IFN-γ ELISPOT after sc or i.n. immunization with E71-98 + adjuvants
Format: in vivo, C57BL/6 mice
Details: 50 μg E71-98 sc or i.n.; 7 days after immunization; groups of 3 to 5 mice

CCOCc1nc2c(N)nc3ccccc3c2n1CC(C)(C)O [R-848, Resiquimod]
E7-specific CD8 T cell responses in PBMC on addition of a single adjuvant to E71-98: one out of three mice only after i.n. administration
